Values of other authors as cited in US20140161876A1, “LIPOSOME-CONTAINING PREPARATION UTILIZING DISSOLUTION AID, AND METHOD FOR PRODUCING SAME” (KONICA MINOLTA, INC., priority 2011, published 2014).
At least one compound was matched to its structure with a doubt left. Some entries share one result that the patent states for a list of compounds.

CC(=O)N(CC(O)CO)c1c(I)c(C(=O)NCC(O)CO)c(I)c(C(=O)NCC(O)CO)c1I (stereo not drawn) [iohexol]
Solubility in water (Table 1, range of the Pharmacopeia class): More than 1000 mg/mL
Amount dissolved (in 1.0 mL, as described in the Japanese Pharmacopeia): not less than 1.0 g
Descriptive term in the Japanese Pharmacopeia (volume of solvent required for dissolving 1 g or 1 mL of solute): Very soluble (Less than 1 mL)
